Results from PMC10178869.
No constants are given. Whether binding was seen depends on the method and setting.

Target: E. coli Aquaporin Z (AqpZ) (E. coli) (UniProt P60844)
Test: SDS-PAGE with or without heating; purified AqpZ nanodiscs (ND) or AqpZ in OG micelles, heated to 70 °C or unheated; both purified

B1: E. coli Aquaporin Z (AqpZ) (protein, UniProt P60844 1-231)
chain: MFRKLAAECFGTFWLVFGGCGSAVLAAGFPELGIGFAGVALAFGLTVLTMAFAVGHISGGHFNPAVTIGLWAGGRFPAKEVVGYVIAQVVGGIVAAALLYLIASGKTGFDAAASGFASNGYGEHSPGGYSMLSALVVELVLSAGFLLVIHGATDKFAPAGFAPIAIGLALTLIHLISIPVTNTSVNPARSTAVAIFQGGWALEQLWFFWVVPIVGGIIGGLIYRTLLEKRD
In the case of B1, the binding is reported as “no binding (condition: heated to 70 °C for SDS-PAGE)”.
